Test results: patent publication US11478526B2, “Methods of reducing neuroinflammation or toxicity induced by amyloid beta (abeta) using glucocorticoid induced leucine zipper (GILZ) analog peptides” (INDIANA UNIVERSITY RESEARCH AND TECHNOLOGY CORPORATION, priority 2016, dated 2022)
Some results were stated once for a whole list of compounds, not compound by compound.

Test system: U373 cells
Assay: Annexin-V and propidium iodide apoptosis by flow cytometry
Format: cell-based, human
Details: 0.5 μM to 50 μM, highest concentration
Procedure: Detection apoptosis by flow cytometry: To further assess cell cytotoxicity, the apoptotic effects of individual GA or control peptide was evaluated by the Annexin-V and propidium iodide (PI) dual staining method (Annexin-V-Fluos staining kit, Roche Diagnostics, Mannheim, Germany). As opposed to apoptotic cells, necrotic cells with ruptured cell membrane take up PI, the DNA binding dye. Thus, cells which take up both fluorochromes are a mixture of apoptotic and necrotic cells, whereas cells that exclude PI but bind Annexin V are (early) apoptotic cells. U373 cells cultured with varying concentrations of individual GA or control peptide (0.5 μM to 50 μM) for 24 hours were centrifuged and suspended in 100 μl of Annexin V/PI labelling solution (20 μl each of Annexin-V-Fluos labelling reagent and PI in 1 ml of binding buffer) for 15 min at room temperature. After washing the cells were resuspended in PBS:1% paraformaldehyde and analyzed using a FACScan flow cytometer (BD Biosciences, San Jose, Calif.).

Ac-EPAPLAPYG-NH2 [GA-1]
apoptosis (Annexin and PI staining): < 25%

Ac-EPAPESPQV-NH2 [GA-2]
apoptosis (Annexin and PI staining): < 25%
